# Reference: PubChem BioAssay AID2685 (National Center for Advancing Translational Sciences (NCATS), 2010)
# The other results are listed elsewhere or left out. The main result of the screen is listed elsewhere. These columns were measured beside it and carry no call. The list favours compounds with an active or inconclusive main result. Potencies come from curve fits of mixed quality, noted in brackets.
# Experiment: qHTS Assay for Lipid Storage Modulators in Drosophila S3 Cells;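 as to cell number change: cells counted by Cell Tracker Red CMTPX staining in the red channel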
# Conditions: BODIPY lipid droplet fluorescence, 18-24 h; for cell number change: measured here: cell count max response, cells fed with added oleic acid
# In short: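 Laser-scanning cytometry quantifies lipid droplet accumulation (500–530 nm total intensity; droplet/cell object ratio) in oleic acid-fed (400 uM added) Drosophila S3 cells treated with a concentration series. 20 uM Triacsin C defined 100% inhibition.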
# [1] = measured here: lipid fluorescence (Fed channel) AC50, cells fed with added oleic acid
# [2] = measured here: cell number channel AC50, cells fed with added oleic acid
structure (smiles),measurement,setting,value
Cc1nc(CCNS(=O)(=O)c2cccnc2)cs1,cell number change,,29.1%
same,AC50,[1],"20.6 µM [rising, single point]"
COC(=O)c1ccc(CSc2nc(C(F)(F)F)c3c(c2C#N)CCC3)o1,cell number change,,3.16%
COc1ccc(NC(=S)N2CCN(c3ccccn3)CC2)cc1,cell number change,,10.6%
same,AC50,[1],"2.91 µM [rising, partial curve]"
CCOc1ccc(N2CC(NC(=O)c3ccc4ccccc4c3)CC2=O)cc1 (centres undefined),cell number change,,-51.5%
same,AC50,[2],"4.61 µM [falling, single point]"
same,AC50,[1],"0.58 µM [falling, single point]"
CCN(CC)CCCNC(=O)C1CCCN(c2nnc(N3CCCC3=O)s2)C1 (centres undefined),AC50,[1],"23.1 µM [falling, partial curve]"
Cc1ccc(-c2nn3c(C)nnc3c3ccccc23)cc1S(=O)(=O)N1CCN(CCO)CC1,cell number change,,4.82%
same,AC50,[1],"2.31 µM [rising, full curve, poor fit]"
CC(C)C(NC(=O)c1ccc(F)cc1)C(=O)NC1(C)CCS(=O)(=O)C1 (centres undefined),cell number change,,19%
same,AC50,[1],"4.11 µM [rising, single point]"
O=C1C2CC=CCC2C(=O)N1c1ccc(N2CCN(c3ccccn3)CC2)c([N+](=O)[O-])c1 (centres undefined),cell number change,,-66.4%
same,AC50,[2],"23.1 µM [falling, partial curve]"
same,AC50,[1],"25.9 µM [falling, partial curve]"
CSc1ccc(/C=N/N2CCN(c3ccccc3)CC2)cc1,cell number change,,-5.31%
Cc1sc(-n2cccc2)c(C(=O)O)c1C,AC50,[1],"13 µM [falling, partial curve]"
CCC(=O)Nc1ccc(NC(=S)NC(=O)Cc2ccccc2)cc1,cell number change,,-4.63%
same,AC50,[1],"0.651 µM [rising, single point]"
Cc1c(N(C)C(=O)c2ccco2)c(=O)n(-c2ccccc2)n1C,cell number change,,-115%
same,AC50,[2],"32.6 µM [falling, partial curve]"
same,AC50,[1],"25.9 µM [falling, partial curve]"
CC(C)(C)OC(=O)N1CCC(NC(=O)c2[nH]cnc2C(=O)Nc2cccc(Cl)c2)CC1,cell number change,,-75.9%
same,AC50,[2],"18.4 µM [falling, partial curve]"
same,AC50,[1],"0.517 µM [falling, partial curve, poor fit]"
Fc1ccc2c(Cl)c(-c3nnc(-c4cccs4)o3)sc2c1,cell number change,,28.2%
CC1CCN(CC(=O)Nc2ccccc2-c2ccccc2)CC1,cell number change,,-42.1%
same,AC50,[2],"23.1 µM [falling, single point]"
same,AC50,[1],"20.6 µM [falling, single point]"
CC(C)C[C@@H](CSc1ccc(Br)cc1)N1CCN(CC(C)C)CCC1=O,cell number change,,16.7%
same,AC50,[1],"4.61 µM [rising, single point]"
O=C1c2ccccc2C(=O)c2[nH]cnc21,cell number change,,-33.5%
same,AC50,[2],"29.1 µM [falling, single point]"
same,AC50,[1],"29.1 µM [falling, single point]"
COc1cc(NC(=O)c2cc(-c3cccnc3)nc3ccc(Br)cc23)cc(OC)c1,cell number change,,41.8%
same,AC50,[2],"6.51 µM [falling, single point]"
same,AC50,[1],"20.6 µM [falling, partial curve, poor fit]"
Cc1ccnc(SCC(=O)N2CCN(C(c3ccccc3)c3ccccc3)CC2)n1,cell number change,,13.6%
same,AC50,[2],"6.51 µM [rising, single point]"
O=C(NC(NCC1CCCO1)C(Cl)(Cl)Cl)c1cccc2ccccc12 (centres undefined),cell number change,,62.3%
same,AC50,[2],"14.6 µM [rising, single point]"
same,AC50,[1],"16.4 µM [rising, partial curve]"
CCS(=O)(=O)c1nc(S(=O)(=O)c2ccc(Cl)cc2)c(N2CCc3ccccc3C2)s1,cell number change,,76.2%
same,AC50,[2],"29.1 µM [rising, single point]"
same,AC50,[1],"8.2 µM [rising, single point]"
COCc1nnc(NC(=O)CCCCCN2C(=O)c3ccccc3C2=O)s1,cell number change,,71%
same,AC50,[2],"29.1 µM [rising, single point]"
CCOc1ccc(N2C(=O)CC(N3CCC(NC(=O)Nc4ccccc4)CC3)C2=O)cc1 (centres undefined),cell number change,,38%
same,AC50,[2],"2.31 µM [rising, partial curve, poor fit]"
same,AC50,[1],"1.84 µM [rising, partial curve]"
CN(CC(=O)NCc1cccnc1)S(=O)(=O)c1ccc2c(c1)c(=O)n(C)c(=O)n2C,cell number change,,20.6%
same,AC50,[1],"0.00731 µM [rising, full curve, poor fit]"
O=C(COC(=O)Cc1c(Cl)cccc1Cl)Nc1ccc(OC(F)(F)F)cc1,cell number change,,-23.6%
same,AC50,[2],"0.00517 µM [falling, full curve, poor fit]"
COC(=O)C1=C(C)N(Cc2ccccc2)C(=NCC(C)C)N[C@H]1c1ccccc1,cell number change,,-9.59%
same,AC50,[1],"6.51 µM [falling, single point]"
CCOC(=O)NC(=O)COC(=O)Cc1cc(OC)c(OC)c(OC)c1,cell number change,,10.3%
same,AC50,[1],"6.51 µM [falling, single point]"
O=c1c2c(-c3cccs3)csc2[nH]c(=S)n1-c1ccccc1,cell number change,,-20.2%
C/C(N)=C(/C#N)C(=O)COC(=O)c1ccc(C)c(S(=O)(=O)N2CCCCC2)c1,AC50,[2],"0.651 µM [rising, full curve, poor fit]"
COc1ccc(N2C(=O)CC(Sc3ccccc3C(=O)O)C2=O)c([N+](=O)[O-])c1 (centres undefined),cell number change,,9.54%
CC(Sc1nnc(COc2ccc([N+](=O)[O-])cc2)n1-c1ccccc1)C(=O)O (centres undefined),cell number change,,-10%
same,AC50,[1],"0.0517 µM [falling, full curve, poor fit]"
Cn1c(N)c(C(=O)COc2ccc(C#N)cc2)c(=O)n(C)c1=O,AC50,[1],"6.51 µM [rising, single point]"
COc1ccc([C@@H]2[C@@H]3C(=O)N(C(C)(C)C)C(=O)[C@@H]3[C@]3(CC(C)C)C(=O)N(c4ccccc4)C(=O)N23)cc1,cell number change,,-6.59%
C#CCOCCOCCOCCNc1nc(N2CCN(C(=O)CCCCCCCCCCNC(=O)[C@H]([C@@H](C)CC)n3cc(CCCCN=C(N)N)nn3)CC2)nc(N2CCN(C(=O)CCCCCCCCCCNC(=O)[C@H](CO)n3cc(CCCSC)nn3)CC2)n1,cell number change,,-49.5%
same,AC50,[2],"18.4 µM [falling, partial curve]"
same,AC50,[1],"0.13 µM [falling, full curve, poor fit]"

# 5 entries drawn at random from the list so far, as already listed:
structure (smiles),measurement,setting,value
COc1ccc(NC(=S)N2CCN(c3ccccn3)CC2)cc1,cell number change,,10.6%
Cn1c(N)c(C(=O)COc2ccc(C#N)cc2)c(=O)n(C)c1=O,AC50,[1],"6.51 µM [rising, single point]"
CCOc1ccc(N2C(=O)CC(N3CCC(NC(=O)Nc4ccccc4)CC3)C2=O)cc1 (centres undefined),AC50,[2],"2.31 µM [rising, partial curve, poor fit]"
CC(C)(C)OC(=O)N1CCC(NC(=O)c2[nH]cnc2C(=O)Nc2cccc(Cl)c2)CC1,AC50,[2],"18.4 µM [falling, partial curve]"
C#CCOCCOCCOCCNc1nc(N2CCN(C(=O)CCCCCCCCCCNC(=O)[C@H]([C@@H](C)CC)n3cc(CCCCN=C(N)N)nn3)CC2)nc(N2CCN(C(=O)CCCCCCCCCCNC(=O)[C@H](CO)n3cc(CCCSC)nn3)CC2)n1,AC50,[1],"0.13 µM [falling, full curve, poor fit]"
